The list does not hold the whole screen: it is rich in T/C values a quarter to a half above the control, in often repeated tests (any T/C) and in doses without a T/C. Other doses and runs of a compound stand elsewhere. T/C gives the treated animals as a percentage of the vehicle group. Some doses have a count of surviving animals in place of a T/C: the source files T/C as zero there, which appears to mark a toxic dose or a test without result, not a measured value. Some doses without a T/C left all or most animals alive at the check, yet need not have been tolerated: the source hardly ever lists a survival T/C far under the control, and the zero likely stands for such cases as well. Counts of survivors are from the toxicity check (mostly the fifth day) where no day follows; animals may have died later. Schedules are NCI's codes, read here as Q, the interval in days (D) or hours (H), X, the number of doses. For survival time, the PubChem record calls one and a half times the control and up active, and a quarter to a half above the control has no call in these data; cut-offs in other NCI protocols can differ. Some T/C values are followed by the survivors on the day toxicity was checked, most often the fifth; without a count, all were alive then. Some entries hold several experiments; their values stand side by side, smallest first.
System: BDF1 mice, P388 leukemia ip, median survival T/C
Test: NCI In Vivo Anticancer Drug Screen. Data for tumor model P388 Leukemia (intraperitoneal) in B6D2F1 (BDF1) mice
Conditions: T/C endpoint: median survival time, higher T/C = longer survival
Experimental: The antitumor activity of compounds was measured in mice bearing transplantable tumors. Survival or tumor size were measured and the results are expressed as the measurement made in the treated group (T) divided by the measurement made in the vehicle treated control group (C). The tumor model used in this assay is P388 Leukemia (intraperitoneal) in B6D2F1 (BDF1) mice

[1] = dose: 200.0 mg/kg/injection, schedule: Q01DX009 (ip), vehicle: saline with Tween-80
[2] = dose: 300.0 mg/kg/injection, schedule: Q01DX009 (ip), vehicle: Klucel (hydroxypropylcellulose) (HPC)
[3] = dose: 400.0 mg/kg/injection, schedule: Q04DX002 (ip), vehicle: saline with Tween-80
[4] = dose: 0.12 mg/kg/injection, schedule: Q01DX009 (ip), vehicle: saline
[5] = dose: 55.0 mg/kg/injection, schedule: Q04DX003 (ip), vehicle: saline

In the case of `CC(C)c1oc(=O)cc2c1[C@@H](O)[C@H]1OC(=O)[C@@]3(C)[C@@H](O)[C@H]4O[C@H]4[C@@]2(C)[C@@H]13`, the survivor count (dose: 60.0 mg/kg/injection, schedule: Q01DX001 (ip), vehicle: saline with Tween-80) is reported as 0 of 6, the survivor count (dose: 60.0 mg/kg/injection, schedule: Q04DX003 (ip), vehicle: saline with Tween-80) is reported as 0 of 6 and the survivor count (dose: 120.0 mg/kg/injection, schedule: Q01DX001 (ip), vehicle: saline with Tween-80) is reported as 0 of 6. For the same compound, the survivor count (dose: 120.0 mg/kg/injection, schedule: Q04DX003 (ip), vehicle: saline with Tween-80) was 0 of 6 and the survivor count (dose: 240.0 mg/kg/injection, schedule: Q01DX001 (ip), vehicle: saline with Tween-80) was 0 of 6.

In the case of `CCCCc1ccc(N2C(N)=NC(N)=NC2(C)C)cc1`, the T/C (dose: 25.0 mg/kg/injection, schedule: Q01DX005 (ip), vehicle: Klucel (hydroxypropylcellulose) (HPC)) is reported as 125 % of control.

`OC(CC1CCCCN1)c1cc2c(Cl)cc(Cl)cc2c2cc(C(F)(F)F)ccc12` (configuration not stated) was tested, and the survivor count (dose: 100.0 mg/kg/injection, schedule: Q01DX009 (ip), vehicle: saline with Tween-80) was 6 of 6 and the survivor count [1] was 0 of 6.

With `O=C(NCCNCc1ccccc1)c1ccccc1` the survivor count (dose: 50.0 mg/kg/injection, schedule: Q04DX003 (ip), vehicle: water) was 3 of 6, the survivor count (dose: 200.0 mg/kg/injection, schedule: Q01DX009 (ip), vehicle: water) was 0 of 6 and the survivor count (dose: 200.0 mg/kg/injection, schedule: Q04DX003 (ip), vehicle: water) was 0 of 6.

For `CCc1cc(O)c(Cl)c(C)c1Cl`, the survivor count (dose: 200.0 mg/kg/injection, schedule: Q01DX009 (ip), vehicle: gum acacia) was 6 of 6.

In the case of `N=Nc1c2ccccc2c2nc3c(N)[nH]nc(N)c3nc12`, the survivor count (dose: 200.0 mg/kg/injection, schedule: Q04DX003 (ip), vehicle: saline with Tween-80) is reported as 6 of 6.

With `ClCCOCCCl` the survivor count [1] was 0 of 6 and the survivor count (dose: 400.0 mg/kg/injection, schedule: Q01DX009 (ip), vehicle: saline with Tween-80) was 0 of 6.

With `O=C(Nc1nc(Cl)nc(Cl)n1)N1CCOCC1` the T/C (dose: 12.5 mg/kg/injection, schedule: Q01DX009 (ip), vehicle: saline with Tween-80) was 131 % of control, the survivor count (dose: 25.0 mg/kg/injection, schedule: Q01DX009 (ip), vehicle: saline with Tween-80) was 6 of 6 and the survivor count (dose: 50.0 mg/kg/injection, schedule: Q04DX003 (ip), vehicle: saline with Tween-80) was 1 of 6.

With `CC(=O)NNC(=O)c1ccccc1` the T/C (dose: 100.0 mg/kg/injection, schedule: Q04DX003 (ip), vehicle: Klucel (hydroxypropylcellulose) (HPC)) was 127 % of control, the survivor count [2] was 3 of 6 and the survivor count (dose: 400.0 mg/kg/injection, schedule: Q01DX009 (ip), vehicle: Klucel (hydroxypropylcellulose) (HPC)) was 4 of 6.

For `CNC/C(C)=C/Br`, the survivor count (dose: 115.0 mg/kg/injection, schedule: Q01DX009 (ip), vehicle: saline) was 1 of 6, the survivor count (dose: 170.0 mg/kg/injection, schedule: Q01DX009 (ip), vehicle: saline) was 0 of 6 and the survivor count (dose: 255.0 mg/kg/injection, schedule: Q01DX001 (ip), vehicle: saline) was 6 of 6.

With `O=c1nc(Oc2ccccc2)nc2ccc(Cl)nn12` the survivor count [1] was 1 of 6.

`CC1CCCN2C(=O)CN(N3CCOCC3)CC(=O)N12` (configuration not stated) was tested, and the survivor count (dose: 200.0 mg/kg/injection, schedule: Q04DX002 (ip), vehicle: saline with Tween-80) was 4 of 5 and the survivor count [3] was 0 of 5.

In the case of `CCCC(C)(C)SSC(C)(C)CCC`, the survivor count [1] is reported as 6 of 6 and the survivor count (dose: 400.0 mg/kg/injection, schedule: Q04DX003 (ip), vehicle: saline with Tween-80) is reported as 5 of 6.

`OCn1cnc2c(SC3CCCC3)ncnc21` was tested, and the T/C (dose: 150.0 mg/kg/injection, schedule: Q01DX009 (ip), vehicle: Klucel (hydroxypropylcellulose) (HPC)) was 140 % of control, the survivor count [2] was 1 of 6 and the survivor count (dose: 600.0 mg/kg/injection, schedule: Q01DX009 (ip), vehicle: Klucel (hydroxypropylcellulose) (HPC)) was 0 of 6.

`O=C(O)/C=C/c1c(Cl)cccc1Cl` was tested, and the survivor count [1] was 1 of 6.

For `CCCCCCCCCCCCCCCCCSCCCCCSCCCCCCCCCCCCCCCCC`, the survivor count (dose: 200.0 mg/kg/injection, schedule: Q01DX001 (ip), vehicle: saline with Tween-80) was 6 of 6.

For `N#C[C@@H]1C2C=CC(CC2)[C@H]1C#N`, the survivor count (dose: 10.0 mg/kg/injection, schedule: Q04DX003 (ip), vehicle: saline with Tween-80) was 3 of 6 and the survivor count (dose: 20.0 mg/kg/injection, schedule: Q04DX003 (ip), vehicle: saline with Tween-80) was 0 of 6.

`CCCCC(=O)OCC1OC(n2cnc3c(=S)nc[nH]c32)C(OC(=O)CCCC)C1OC(=O)CCCC` (configuration not stated) was tested, and the survivor count (dose: 200.0 mg/kg/injection, schedule: Q01DX009 (sc), vehicle: olive oil, sesame oil, peanut oil) was 6 of 6 and the survivor count (dose: 400.0 mg/kg/injection, schedule: Q01DX009 (sc), vehicle: olive oil, sesame oil, peanut oil) was 6 of 6.

For `CC(=O)OC(C)(C)/C=C/C(=O)[C@](C)(O)[C@H]1[C@H](O)C[C@@]2(C)[C@@H]3CC=C4[C@@H](C[C@H](O)C(=O)C4(C)C)[C@]3(C)C(=O)C[C@]12C`, the T/C (dose: 0.03 mg/kg/injection, schedule: Q01DX009 (ip), vehicle: saline) was 125 % of control, the T/C (dose: 0.04 mg/kg/injection, schedule: Q01DX009 (ip), vehicle: saline) was 130 % of control and the survivor count (dose: 0.07 mg/kg/injection, schedule: Q01DX009 (ip), vehicle: saline) was 6 of 6. The T/C [4] was 125 % of control, the survivor count [4] was 5 of 6 and the survivor count (dose: 0.18 mg/kg/injection, schedule: Q01DX009 (ip), vehicle: saline) was 3 of 6. The survivor count (dose: 0.25 mg/kg/injection, schedule: Q01DX009 (ip), vehicle: saline) was 1 of 6, the survivor count (dose: 0.36 mg/kg/injection, schedule: Q04DX003 (ip), vehicle: saline) was 3 of 6 and the T/C (dose: 0.37 mg/kg/injection, schedule: Q01DX009 (ip), vehicle: saline) was 135 % of control. The survivor count (dose: 0.5 mg/kg/injection, schedule: Q01DX009 (ip), vehicle: saline) was 0 of 6, the T/C (dose: 0.75 mg/kg/injection, schedule: Q01DX009 (ip), vehicle: saline) was 135 % of control and the T/C (dose: 1.0 mg/kg/injection, schedule: Q01DX010 (ip), vehicle: carboxymethylcellulose (CMC)) was 127 % of control. The T/C (dose: 1.5 mg/kg/injection, schedule: Q01DX009 (ip), vehicle: saline) was 130 % of control, the survivor count (dose: 2.0 mg/kg/injection, schedule: Q01DX010 (ip), vehicle: carboxymethylcellulose (CMC)) was 0 of 6 and the survivor count (dose: 3.0 mg/kg/injection, schedule: Q01DX010 (ip), vehicle: carboxymethylcellulose (CMC)) was 2 of 6.

For `CCOC(=S)N/N=C(\C)CC`, the survivor count (dose: 10.0 mg/kg/injection, schedule: Q01DX009 (ip), vehicle: saline with Tween-80) was 0 of 6.

For `COc1ccc2c(ccc[n+]2C)c1`, the T/C (dose: 16.5 mg/kg/injection, schedule: Q01DX009 (ip), vehicle: saline) was 127 and 130 % of control [5 of 6 alive], the T/C (dose: 25.0 mg/kg/injection, schedule: Q01DX009 (ip), vehicle: saline) was 140 [5 of 6 alive] and 145 % of control and the T/C (dose: 33.0 mg/kg/injection, schedule: Q01DX009 (ip), vehicle: saline) was 135 % of control. For the same compound, the survivor count (dose: 50.0 mg/kg/injection, schedule: Q01DX009 (ip), vehicle: saline) was 3 of 6, the T/C [5] was 130 % of control and the survivor count [5] was 3 of 6. For the same compound, the survivor count (dose: 75.0 mg/kg/injection, schedule: Q01DX009 (ip), vehicle: saline) was 3 of 6, the survivor count (dose: 80.0 mg/kg/injection, schedule: Q04DX003 (ip), vehicle: saline) was 1 of 6 and the survivor count (dose: 82.5 mg/kg/injection, schedule: Q04DX003 (ip), vehicle: saline) was 1 of 6. The survivor count (dose: 85.0 mg/kg/injection, schedule: Q04DX003 (ip), vehicle: saline) was 4 of 6 and the survivor count (dose: 125.0 mg/kg/injection, schedule: Q04DX003 (ip), vehicle: saline) was 0 of 6.

With `O=C(O)/C=C/C(=O)Nc1cccc(Oc2ccc([N+](=O)[O-])cc2[N+](=O)[O-])c1` the survivor count (dose: 400.0 mg/kg/injection, schedule: Q01DX009 (ip), vehicle: saline) was 1 of 6.

With `Cc1cc(N(C)C)ccc1/C=C/c1ccnc2ccccc12` the survivor count [3] was 6 of 6.

Source: PubChem BioAssay AID328 (DTP/NCI, 2004)
